From US7538111B2, “Benzenesulphonamide derivatives, method for production and use thereof for treatment of pain” (Laboratoires Fournier S.A., priority 2003, dated 2009)
The structures given here were assigned with low confidence; some may be wrong.

The chains behind the UniProt entries cited, without tags or fusion partners.
UniProt P46663, whole entry: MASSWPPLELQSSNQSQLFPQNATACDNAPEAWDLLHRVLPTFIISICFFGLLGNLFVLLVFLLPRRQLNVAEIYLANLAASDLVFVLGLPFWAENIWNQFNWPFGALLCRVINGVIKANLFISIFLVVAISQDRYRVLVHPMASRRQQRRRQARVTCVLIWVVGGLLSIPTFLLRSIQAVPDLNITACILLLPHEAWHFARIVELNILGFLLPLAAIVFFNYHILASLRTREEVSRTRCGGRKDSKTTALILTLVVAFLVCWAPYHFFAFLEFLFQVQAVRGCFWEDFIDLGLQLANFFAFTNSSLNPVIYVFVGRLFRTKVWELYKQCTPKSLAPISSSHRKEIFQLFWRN

Target: B1 receptor of bradykinin (Homo sapiens, UniProt P46663)
Assay: human umbilical vein contraction by des-Arg10-Kallidin, antagonism at the B1 receptor of bradykinin
Assay type: cell-based
Settings: isolated human umbilical vein rings, agonist des-Arg10-Kallidin, pKB=-log KB from EC50 concentration ratio; tested form: difumarate

## COc1cc(Cl)c(S(=O)(=O)N(C)CCOCC(=O)N2CCC(CN3CCN(C)CC3)CC2)c(Cl)c1
  pKB: 8
